According to paper PMC8692139:
These are yes or no findings as the source states them, for the method shown. In cells and extracts the contact can be indirect. Some results given as binding are weak or reduced against the parent protein; the word gives no strength. For some assays here: Where a sequence is shown, tags or fusion partners need not be part of it. Values belong to the binder of their own block, whether it stands above or below them.

Chains of the proteins cited; added tags and fusions are not shown.
UniProt Q16659: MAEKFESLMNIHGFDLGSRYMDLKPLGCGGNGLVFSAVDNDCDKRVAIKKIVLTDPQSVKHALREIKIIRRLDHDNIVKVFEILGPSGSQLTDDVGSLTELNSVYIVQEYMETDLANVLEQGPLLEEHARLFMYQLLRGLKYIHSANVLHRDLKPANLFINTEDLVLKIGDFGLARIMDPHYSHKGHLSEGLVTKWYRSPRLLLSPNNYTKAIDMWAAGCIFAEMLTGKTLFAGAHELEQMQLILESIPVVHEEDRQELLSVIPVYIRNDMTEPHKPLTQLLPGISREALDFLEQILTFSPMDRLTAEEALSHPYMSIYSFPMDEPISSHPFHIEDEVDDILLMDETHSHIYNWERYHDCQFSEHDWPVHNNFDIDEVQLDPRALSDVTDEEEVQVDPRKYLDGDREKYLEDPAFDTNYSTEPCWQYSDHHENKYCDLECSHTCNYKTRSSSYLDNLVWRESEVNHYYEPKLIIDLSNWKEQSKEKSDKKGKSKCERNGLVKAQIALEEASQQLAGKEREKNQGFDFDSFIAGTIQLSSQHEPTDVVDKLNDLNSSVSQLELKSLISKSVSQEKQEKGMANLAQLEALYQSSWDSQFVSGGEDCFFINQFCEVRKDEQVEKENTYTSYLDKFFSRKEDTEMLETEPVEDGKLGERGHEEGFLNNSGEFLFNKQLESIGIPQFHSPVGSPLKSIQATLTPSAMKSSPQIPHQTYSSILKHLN

Legend:
[1] = target: mitogen-activated protein kinase 6 (MAPK6) (endogenous, SiHa cells) (human (endogenous in SiHa)) (UniProt Q16659); test: co-IP; endogenous proteins in SiHa cell lysate (weak RIPA buffer); target protein antibody or normal IgG overnight at 4 °C, magnetic beads 2-3 h, Western blotting
[2] = target: MAPK6 (HA tag), exogenous (UniProt Q16659); test: co-IP; SiHa cells transfected with plasmids expressing Rab31 (Flag tag) and MAPK6 (HA tag); lysate in weak RIPA buffer, antibody or normal IgG overnight at 4 °C, magnetic beads 2-3 h, Western blotting

- binding [1]: binds
B1: Rab31 (endogenous, SiHa cells) (protein, UniProt Q13636 1-195)
chain: MMAIRELKVCLLGDTGVGKSSIVCRFVQDHFDHNISPTIGASFMTKTVPCGNELHKFLIWDTAGQERFHSLAPMYYRGSAAAVIVYDITKQDSFYTLKKWVKELKEHGPENIVMAIAGNKCDLSDIREVPLKDAKEYAESIGAIVVETSAKNAINIEELFQGISRQIPPLDPHENGNNGTIKVEKPTMQASRRCC

- binding [2]: binds
B2: Rab31 (Flag tag), exogenous (protein, UniProt Q13636 1-195)
chain: B1 chain
